Library screening results

Data taken from ChEMBL document CHEMBL3988442, “University of Dundee, Small-Polar-MMV Screening Library” (2021).

Results are given as percent effect.
The record does not define 0% and 100%; most values in the screen are far below 50% and negative numbers occur (in some assays of this library far below -100).
Compounds were drawn at random from those tested, without regard to their results.
Two or more numbers in one place are separate tests of the same structure; such repeats can differ widely.

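Viability assay of Plasmodium falciparum sporozoites; the read-out is not stated. The concentration is filed as 10 mM, unlikely as a test dose, so the dose is not known. The record gives no direction; compounds that gave an IC50 in retests scored well above the rest, so higher reads as lower viability. Strong results were mostly tested again. Of about 34,000 compounds tested this way, about 280 (0.84%) reached 50% or more in at least one test.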

- Cc1cncc(C2CCCN(C(=O)c3cccn3C)C2)n1 (stereo not drawn) | -7.538%
- Cc1nc(N)c2ccc(C3CCCCN3)nc2n1.Cl (stereo not drawn) | 13.3%
- [H][C@]12CC[C@]([H])(CN(c3nc(C)nc4sccc34)C1)[C@@H]2OC | -5.325%
- Cc1nc(C)n(C2CCCN(C(=O)c3c[nH]c(C(C)C)n3)C2)n1 (stereo not drawn) | -0.2576%
- CCOCC1CN(CC2CCC2)Cc2nnn(CC3CC3)c21 (stereo not drawn) | 5.199%
- Cn1cccc1CN1CCc2ncnc(-c3cccnc3)c2CC1 | 7.456%
- COc1ccc(OC2CCN(Cc3ccn(C)c(=O)c3)CC2)cc1 | -1.822%
- CC1c2ncc(Cn3cccn3)n2CCN1c1ncccn1.O=C(O)C(F)(F)F (stereo not drawn) | -7.426%
- COc1cccc(CN(C)C(=O)CN2CC(n3nc(C)cc3C)C2)c1 | 13.19%
- CCc1cccc(OCCCN(C)C(=O)CN2CCNC2=O)c1 | 4.585%
- Cc1cccc(=O)n1CCC(=O)N1CC[C@](C)(O)[C@H](C)C1 | 13.68%
- COCCO[C@H]1CCN(c2ccc(C)nn2)[C@H]1Cc1cccnc1.O=C(O)C(F)(F)F.O=C(O)C(F)(F)F | 9.675%
- CN(C)c1ncccc1CNS(=O)(=O)c1cc(F)ccc1F | 10.06%
- O=C(O)C(F)(F)F.[H][C@@]12CN(Cc3ccsc3)CCO[C@]1([H])CN(C(=O)C1CC=CC1)C2 | -0.434%
- Cn1nc(Cl)cc1C(=O)N1CCC(C(=O)c2nc3ccccc3s2)CC1 | 5.383%
- CC(C)(C)c1cc(CN2CCOC(CN)C2)n[nH]1 (stereo not drawn) | 7.399%
- O=C(O)C(F)(F)F.O=C(O)C(F)(F)F.[H][C@@]12CN(CCOC)C[C@]1([H])[C@@H](OC)CCN2S(=O)(=O)c1cccnc1 | 9.021%
- O=C(O)C(F)(F)F.O=C(O)C(F)(F)F.[H][C@@]12CCN(Cc3cccc(C#N)c3)[C@@]1([H])CC(=O)N2CCN1CCCC1 | -6.443%
- CC(OCc1ccccc1)C(=O)NC1CCN(CC(N)=O)CC1 (stereo not drawn) | -12.54%
- O=C(Nc1nc2c(s1)CN(S(=O)(=O)C1CC1)CC2)C1CC1 | -34.22% and -19.75%
- c1cc(CN2CCOC(Cn3cccn3)C2)c2c(c1)OCCO2 (stereo not drawn) | 2.244%
- CC(=O)N1CCCCC1c1cc(C(=O)N2CCOCC2)[nH]n1 (stereo not drawn) | -6.754%
- COCC(=O)N1CCCC(Cc2cnc(-c3c(C)n[nH]c3C)cn2)C1 (stereo not drawn) | 6.523%
- O=C(O)C(F)(F)F.O=C(O)C(F)(F)F.O=C(O)C(F)(F)F.[H][C@@]12C[C@@H](Oc3cncnc3)CN1CCN(Cc1cccnc1)C2 | 8.581%
- O=C(O)C(F)(F)F.[H][C@@]12C[C@H](C(=O)N3CCOCC3)[C@@]([H])(CN(c3ncc(CC)cn3)C1)O2 | 3.038%
- NC(=O)C1CCN(C(=O)NCc2ccc(-c3ccn[nH]3)cc2)CC1 | 8.391%
- NC(=O)C1CCN(Cc2csc(-c3ncccn3)n2)CC1 | -22.27% and -16.43% and -15.46%
- COc1cc(-c2cc(=O)[nH]cn2)cc(OC)c1OC | -14.65%
- COCCN1CCCC1c1nccnc1Nc1nc(C)cs1 (stereo not drawn) | -7.067%
- CC(C(=O)NC1CC1)n1nc(-c2cccs2)cc(N)c1=O (stereo not drawn) | -0.9974%
- COc1ncccc1NC(=O)N(C1CC1)C(C)C(C)C (stereo not drawn) | 6.035%
- OC[C@@H]1CCCN1c1ccc(-c2nc(COc3ccccc3)no2)cn1 | 3.859%
- [H][C@@]12C[C@@H](C)O[C@]1([H])CN(S(=O)(=O)c1ccc(F)cc1)C2 | 7.443%
- Cc1nc(CN2CCC3(CC2)CCN(C(=O)c2cscn2)C3)cs1.O=C(O)C(F)(F)F | -4.08%
- Cc1cc(C(=O)N2C[C@@H](CN3CCCCC3)[C@@H](CO)C2)ccc1O | -27.35% and -17.63%
- Cc1nc(-c2ccccc2F)sc1C(=O)N1CCN(C)CC1 | 3.222%
- Cn1nc2c(c1NC(=O)c1cccs1)CCC2 | 5.952%
- [H][C@]12CCCC(=O)N[C@@]1(C)CCCCN2C(=O)c1cccc(C)n1 | 2.403%
- O=C(O)C(F)(F)F.[H][C@@]12CCN(Cc3ccoc3)C[C@@]1([H])O[C@H](C(=O)N1CCCC1)C2 | -4.943%
- CN(Cc1ccc(N(C)C)cc1)C(=O)CSc1ccc(Br)cc1 | -11.08%
- Cc1nn(C)c(C)c1C1CCCN1Cc1noc(C2CC2)n1 (stereo not drawn) | 10.19% and 6.748% and 3.66%
- N#Cc1c(C2CC2)cc(-c2ccc(O)cc2)nc1N | -4.47%
- Cc1cccc(CN2CCC(c3nnc(-c4scnc4C)o3)CC2)c1 | -9.205%
- CCCS(=O)(=O)N1CCC2(CN(c3cnn(C)c3)C(=O)CN2C)C1.O=C(O)C(F)(F)F (stereo not drawn) | 4.51%
- CCn1nc2c(cc1=O)CN(Cc1nc(-c3ccsc3)no1)CC2 | -5.636%
- CCN(Cc1noc(C)n1)C(=O)C(c1ccc(C)cc1)N(C)C (stereo not drawn) | -10.19%
- CCCN(CCO)S(=O)(=O)c1ccc2[nH]c(=O)[nH]c2c1 | 0.4491%
- Cl.Cl.O=C([C@H]1CCCN1)N1CC2(CCNCC2)c2cc(Cl)ccc21 | 12.41%

5 of the entries, repeated:

| Compound | Percent Effect |
|---|---|
| `COc1ncccc1NC(=O)N(C1CC1)C(C)C(C)C` (stereo not drawn) | 6.035 |
| `COc1ccc(OC2CCN(Cc3ccn(C)c(=O)c3)CC2)cc1` | -1.822 |
| `CC(C(=O)NC1CC1)n1nc(-c2cccs2)cc(N)c1=O` (stereo not drawn) | -0.9974 |
| `CC1c2ncc(Cn3cccn3)n2CCN1c1ncccn1.O=C(O)C(F)(F)F` (stereo not drawn) | -7.426 |
| `Cn1nc(Cl)cc1C(=O)N1CCC(C(=O)c2nc3ccccc3s2)CC1` | 5.383 |